Assay results published in publication PMC11782696, “Claudin-11 regulates immunological barrier formation and spermatogonial proliferation through stem cell factor” (Communications Biology, 2025).
No constants are given. Whether binding was seen depends on the method and setting. Sequences can lack the tags named with a protein.

Target: T1, GST fusion protein of mouse CLDN11 C-terminus lacking the two C-terminal amino acids (HV sequence) (aa 179-205) (mouse) (UniProt Q60771)
T1 sequence: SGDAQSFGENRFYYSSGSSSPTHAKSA
Experiment: pull-down; GST-fused proteins on Glutathione Sepharose 4B beads incubated with eluted MBP-fused proteins at 4 °C overnight in buffer A (50 mM Tris-HCl pH 8.0, 50 mM NaCl, 1 mM EDTA, 1 mM DTT); washed three times; SDS-PAGE and Coomassie Brilliant Blue staining; both purified

B1: MBP fusion protein of the PDZ1 domain (aa 19-113) of mouse ZO1 (domain or fragment, UniProt P39447 19-113)
chain: WEQHTVTLHRAPGFGFGIAISGGRDNPHFQSGETSIVISDVLKGGPAEGQLQENDRVAMVNGVSMDNVEHAFAVQQLRKSGKNAKITIRRKKKVQ
- binding: no binding
